No constants are given. Whether binding was seen depends on the method and setting. Binding calls can cover weak binding; strength is not graded here.
Biological target: cynomolgus NTB-A (cynomolgus monkey)
Experiment: flow cytometry on 293-F17 cells overexpressing cynomolgus NTB-A, 20 µg/mL antibody, goat anti-human IgG-PE

Binder | binding
chimeric 20F3 (antibody, V domains shown, It was detected with goat anti-human IgG, so the constant regions are human, but they are not specified) VH: QIQLVQSGPELKKPGETVKISCKASGYTFTNYGMNWVKQAPGKDLKWMGWINTYSGEPRYADDFKGRFAFSLEKSANTAYLQINNLKNEDMATYFCARDYGRWYFDVWGTGTTVTVSS VL: QIVLSQSPAILSASPGEKVTMTCRASSSVSHMHWYQQKPGSSPKPWIYATSNLASGVPARFSGSGSGTSYSLTISRVEAEDAATYYCQQWSSTPRTFGGGTKLEIKR | binds
humanized 20F3 HDLD antibody (antibody, V domains shown, also called h20F3_HDLD; h20F3_HDLD-AF647) VH: QIQLVQSGSELKKPGASVKVSCKASGYTFTNYGMNWVRQAPGQDLKWMGWINTYSGEPRYADDFKGRFVFSLDKSVNTAYLQISSLKAEDTAVYYCARDYGRWYFDVWGQGTTVTVSS VL: QIVLSQSPATLSLSPGERATMSCRASSSVSHMHWYQQKPGQAPRPWIYATSNLASGVPARFSGSGSGTDYTLTISSLEPEDFAVYYCQQWSSTPRTFGGGTKVEIKR | binds

Source: US20180169257A1 (Seagen, published 2018)
